Data reported in patent publication US20070066551.
Construct, isoform or probe ends are uncertain for at least one entry. Negatives hold for the conditions tested.

Chains of the proteins cited; added tags and fusions are not shown. A line that says so, or that is headed by a name, gives the form on record, which may keep a tag or linker.
IgE (Homo sapiens), one chain, as listed by the source: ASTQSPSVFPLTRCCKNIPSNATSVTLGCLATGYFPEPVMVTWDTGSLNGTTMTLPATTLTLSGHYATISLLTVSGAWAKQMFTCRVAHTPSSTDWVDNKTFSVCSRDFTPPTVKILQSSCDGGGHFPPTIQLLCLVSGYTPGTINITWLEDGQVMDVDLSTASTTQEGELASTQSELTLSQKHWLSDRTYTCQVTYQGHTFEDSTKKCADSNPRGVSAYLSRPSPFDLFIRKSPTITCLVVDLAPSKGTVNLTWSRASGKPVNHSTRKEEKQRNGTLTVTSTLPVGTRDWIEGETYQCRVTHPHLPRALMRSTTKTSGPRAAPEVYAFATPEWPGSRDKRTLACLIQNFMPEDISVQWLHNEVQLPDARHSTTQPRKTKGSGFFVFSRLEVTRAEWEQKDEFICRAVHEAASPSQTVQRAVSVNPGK

Tested on: IgE (Homo sapiens)
Experiment: filter binding
Details: other modifications as ARC1335, No binding, DPBS with Ca/Mg, BSA, RT, label: 5'-32P, letters built from the parent sequence and the stated change, variant of ARC1335

AGCCUGGGGACCCAUGGGGGGCU [ARC1552]: no binding (as ARC1335 with dI at 6, 3'-idT [dI at 6 (parent base G)).

AGCCUGGGGACCCAUGGGGGGCU [ARC1553]: no binding (as ARC1335 with dI at 7, 3'-idT [dI at 7 (parent base G)).

AGCCUGGGGACCCAUGGGGGGCU [ARC1554]: no binding (as ARC1335 with dI at 8, 3'-idT [dI at 8 (parent base G)).

AGCCUGGGGACCCAUGGGGGGCU [ARC1555]: no binding (as ARC1335 with dI at 9, 3'-idT [dI at 9 (parent base G)).
